Assay results as given in patent publication US5633274A, “Cancer treatments” (President and Fellows of Harvard College, priority 1993, dated 1997).
pIC50: −log10 of the molar value.

Tested on: rat vascular smooth muscle cells
Assay: cells
Conditions: 24 h, read-out: ID50

## Clc1ccccc1C(c1ccccc1)(c1ccccc1)n1ccnc1 [clotrimazole]
  pIC50: ~5.82
